This is one part of the list.

The text below walks through data of article PMC7819943, “Rice protein-binding microarrays: a tool to detect cis-acting elements near promoter regions in rice”.

This assay has as its target T1, OsSMF1 (Oryza sativa, UniProt Q6ZLB0 1-436).
T1 sequence: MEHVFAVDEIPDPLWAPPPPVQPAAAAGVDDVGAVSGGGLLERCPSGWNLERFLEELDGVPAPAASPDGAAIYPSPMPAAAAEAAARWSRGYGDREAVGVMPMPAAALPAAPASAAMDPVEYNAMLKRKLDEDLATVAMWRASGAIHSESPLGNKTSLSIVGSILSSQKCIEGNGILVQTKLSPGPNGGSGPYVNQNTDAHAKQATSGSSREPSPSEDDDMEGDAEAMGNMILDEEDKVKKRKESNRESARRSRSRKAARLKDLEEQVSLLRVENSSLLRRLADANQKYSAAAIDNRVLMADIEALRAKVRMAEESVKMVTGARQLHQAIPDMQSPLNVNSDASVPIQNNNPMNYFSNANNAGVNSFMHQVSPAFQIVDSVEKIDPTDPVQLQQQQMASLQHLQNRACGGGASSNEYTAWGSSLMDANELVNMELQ
The assay is described as follows: protein-binding microarray (RPBM); PBS, 2% BSA, 51.3 ng/ul salmon testes DNA, 50 uM zinc acetate, 200 nM TF, 25 C, 1 h; high values mean tight binding. The following applies: protein: recombinant; tags: N-terminal polyhistidine and DsRed monomer fusion (pET32a); chain copies: 2; label: CyDye5-dUTP incorporated in the synthesized complementary strand; 3' TTTTT single-stranded linker to array surface; dsDNA, one strand shown. A digest of the protocol:
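Transcription factors, each fused N-terminally to a polyhistidine tag and DsRed, were expressed in E. coli BL21-CodonPlus and purified on Ni–NTA. A custom Agilent array was made double-stranded by primer extension with Cy5-dUTP and blocked with 2% BSA. It was incubated with 200 nM protein in PBS, 2% BSA, salmon testes DNA and 50 µM zinc acetate at 25 °C for 1 h, then washed. The binding signal is per-feature fluorescence intensity (arbitrary units) read on an Axon 4000B scanner.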
Turning to “CCGCATAACAATAGTTTACACGAGAACGTGAATCATACGACGGAGTCACCTAGTGCAG”, the binding signal is 3890 fluorescence intensity (a.u.).

Turning to “TATGTATTAATGTAGCTGCCACGTACCTTCTCCATCATCCCGGAGTCACCTAGTGCAG”, the binding signal was 9400 fluorescence intensity (a.u.).

With “CCATCTAGTATATAGTGGTGATGATGATGGTGGTACCAAACGGAGTCACCTAGTGCAG”, the binding signal is 5420 fluorescence intensity (a.u.).

“TAGGCGAAGTATCCGTCAACAGCAAGGCGCCCATGGTAATCGGAGTCACCTAGTGCAG”: the binding signal is 3340 fluorescence intensity (a.u.).

“TTGACATGCCTCTTTCTGTACACCTGTCTTTTACTGGCGTCGGAGTCACCTAGTGCAG”: the binding signal was 5120 fluorescence intensity (a.u.).

With “CTCTCTGCGACGCTACGCTGCCCCAAGCAGCGGAAACAATCGGAGTCACCTAGTGCAG”, the binding signal is 29100 fluorescence intensity (a.u.).

Take “GCGGTCTCCTCTCCTGTCGTGCGTGCGTGCCGGAGACGACCGGAGTCACCTAGTGCAG”: the binding signal was 3920 fluorescence intensity (a.u.).

As to “CAATGGATCGAGTACTTATCTACTGATCTAGTCATCAATCCGGAGTCACCTAGTGCAG”, the binding signal was 5560 fluorescence intensity (a.u.).

As for “CCTGCGCCGCCGTGACAGCCGCGATGGTCGCCGGCGGAGACGGAGTCACCTAGTGCAG”, the binding signal is 3340 fluorescence intensity (a.u.).

In the case of “ATCTCTATTATTATAGTATTTTGGTACGTCATCCGTGTATCGGAGTCACCTAGTGCAG”, the binding signal is 7580 fluorescence intensity (a.u.).

In the case of “GCAAATATGTAAATTACACCTGGAGACATAGGTTGTGTTTCGGAGTCACCTAGTGCAG”, the binding signal was 4940 fluorescence intensity (a.u.).

With “AAATCTCGCGTAGACGACGTCGTAGCCGTGGCCACCGCTACGGAGTCACCTAGTGCAG”, the binding signal is 3480 fluorescence intensity (a.u.).

For “AGCGGAGGTGGACCCTTCCGTTCACTTCGTCCGCAAGTCGCGGAGTCACCTAGTGCAG”, the binding signal is 25800 fluorescence intensity (a.u.).

Regarding “TAGTAGTAATGTTGCTTCTGGTAATAGTTGTGTGTGCTGTCGGAGTCACCTAGTGCAG”, the binding signal was 3320 fluorescence intensity (a.u.).

“CATCTTCAGAATAAAAGAACACCACCGAAGAGCATACTACCGGAGTCACCTAGTGCAG”: the binding signal was 30200 fluorescence intensity (a.u.).

With “CAGTTCTTTTGTTTCTTTGACATCATTAGCCTTACATTTGCGGAGTCACCTAGTGCAG”, the binding signal was 4050 fluorescence intensity (a.u.).

On to “GCGAGAAAGACGAGGTGGTGGTGGCGGCGGCGGTTGTGATCGGAGTCACCTAGTGCAG”, for which the binding signal was 3950 fluorescence intensity (a.u.).

As for “ACGAGACGCGTGCGTCACAGCAGCTCACGATTCCGTCGCGCGGAGTCACCTAGTGCAG”, the binding signal is 3710 fluorescence intensity (a.u.).

For the sequence “GATCGTGGAATTAATTCCACCTTAGTTGTTATGGGCGGGTCGGAGTCACCTAGTGCAG”, the binding signal was 4260 fluorescence intensity (a.u.).

As to “AGCGAGTAACGTGGCATATTCACCATAGATGTCCACGACACGGAGTCACCTAGTGCAG”, the binding signal is 7260 ± 427 fluorescence intensity (a.u.).

In the case of “AACGCATTCCAGCTCATCCGTCTCCTGACCTTTGCTTGTCCGGAGTCACCTAGTGCAG”, the binding signal is 5830 fluorescence intensity (a.u.).

Consider “TATCATCAGGCTAATATGCCGTGACAACACTTTGTGTTTCCGGAGTCACCTAGTGCAG”, for which the binding signal was 3710 fluorescence intensity (a.u.).

Take “CTCACGAGCCAAACGAGCCAATGATAGCCCACGTCACAAGCGGAGTCACCTAGTGCAG”: the binding signal was 13500 fluorescence intensity (a.u.).

“ATAGGCTGTCAGGCTGATGGCTACACTTGAACATTACCTTCGGAGTCACCTAGTGCAG”: the binding signal is 27800 fluorescence intensity (a.u.).

On to “CCAGCGTCGCCGGCCCGCCACGTGTACGGCTCTGATTGGACGGAGTCACCTAGTGCAG”, for which the binding signal is 12700 fluorescence intensity (a.u.).

In the case of “TCGTCTTCTCCACATCAATCACCAGCTATCTCGATCGTGACGGAGTCACCTAGTGCAG”, the binding signal is 3510 fluorescence intensity (a.u.).

In the case of “TAAATTGACACATCACCTCTAGGATCCTACGTGGCGTTGACGGAGTCACCTAGTGCAG”, the binding signal is 14400 fluorescence intensity (a.u.).

Turning to “CCCGCGCCTGCATCGCCACGTGGCATCCCGCCGCCACGGGCGGAGTCACCTAGTGCAG”, the binding signal is 19500 fluorescence intensity (a.u.).

As to “CAGAAGGATATATGTTTTATAATTTATTCAAATACTAGATCGGAGTCACCTAGTGCAG”, the binding signal was 41400 fluorescence intensity (a.u.).

In the case of “CAGAGTTTGTTACTAAAGGAGAAGGACAGCCATGTAGGCACGGAGTCACCTAGTGCAG”, the binding signal is 3630 fluorescence intensity (a.u.).

Take “TTGACAAAGATGACTAGCGGTGTCCATAAATTTGTTCTCACGGAGTCACCTAGTGCAG”: the binding signal is 34800 fluorescence intensity (a.u.).

For “AAACTTCCAACTTTTCCGTCACATCGACACACATAAACTTCGGAGTCACCTAGTGCAG”, the binding signal is 3240 fluorescence intensity (a.u.).

On to “GTCAAATTCTAGTGAGAATACTGTGAATTTCATGGTTCCACGGAGTCACCTAGTGCAG”, for which the binding signal was 11100 fluorescence intensity (a.u.).

For “TACAGCCGTTGACAGTTAACTGAACTTTCACTAGTTCAATCGGAGTCACCTAGTGCAG”, the binding signal was 3190 fluorescence intensity (a.u.).

“GGCGCATCACTTCCCTCTGTCTCCGAGCTTACTATTTTATCGGAGTCACCTAGTGCAG”: the binding signal is 28500 fluorescence intensity (a.u.).

Regarding “AATTTCTCAGATAATGACACATGATCATAGGAATTCAACCCGGAGTCACCTAGTGCAG”, the binding signal is 21300 fluorescence intensity (a.u.).

For the sequence “GAATGACTCAATTAGTCCGAATGACTGAAATTCCACGGGGCGGAGTCACCTAGTGCAG”, the binding signal was 3330 fluorescence intensity (a.u.).

On to “AAGACACAAGGTGCACGTCACTGATCAGATCACTGACGCACGGAGTCACCTAGTGCAG”, for which the binding signal was 5420 fluorescence intensity (a.u.).

Turning to “AGTAGTTTATCTCTTAACATTAGTCCATACTATTAATATTCGGAGTCACCTAGTGCAG”, the binding signal is 3260 fluorescence intensity (a.u.).

Regarding “GTGCGCGGCGGCGGCGTGGAGTACGCGCACCACCAGACGGCGGAGTCACCTAGTGCAG”, the binding signal is 4920 fluorescence intensity (a.u.).

For “TTGGGGAAAAGTTTTGAGTTTGATTGTCACATCGGATATACGGAGTCACCTAGTGCAG”, the binding signal was 53000 fluorescence intensity (a.u.).

Regarding “CCTCTCGTCTCGTCTCGCACGCACCCGCCACGTCCACCCCCGGAGTCACCTAGTGCAG”, the binding signal was 8350 fluorescence intensity (a.u.).

Take “TTACCCACAATTTTAGGTTCTCATCTGCCACCACATATTTCGGAGTCACCTAGTGCAG”: the binding signal was 21500 fluorescence intensity (a.u.).

As for “CATGAGAGATATAAAACACATGCGTCATTCTCTTTGATCTCGGAGTCACCTAGTGCAG”, the binding signal is 5120 fluorescence intensity (a.u.).

In the case of “CGGCTGCGGTAGGAGCTGAGCATGACGAGGAGGGCGAGTGCGGAGTCACCTAGTGCAG”, the binding signal is 3470 fluorescence intensity (a.u.).

In the case of “CGTGCTCCTCAACGTTTACACAGAGGTGACAGAGCAGAACCGGAGTCACCTAGTGCAG”, the binding signal was 4160 fluorescence intensity (a.u.).

As for “GTCGGGCGAAGAAGCCCGACTTCCCACCCACTCTCCCCGTCGGAGTCACCTAGTGCAG”, the binding signal was 21400 fluorescence intensity (a.u.).

Turning to “CGAGACGCCGCCGGCGGTGAAGGCCTTGTCGGAGGCAATGCGGAGTCACCTAGTGCAG”, the binding signal is 22700 fluorescence intensity (a.u.).

For the sequence “CGCGGCGAGGTTGACCCCGCCATCGTCGCCACCGTCCTCGCGGAGTCACCTAGTGCAG”, the binding signal is 3520 fluorescence intensity (a.u.).

“GATCACATGAATGACATAAGCAACATGACGAGCTATGAACCGGAGTCACCTAGTGCAG”: the binding signal is 4340 fluorescence intensity (a.u.).

With “CGATGGTAGAAAAGGGTCTACGTAGTACTTAGAATCACGGCGGAGTCACCTAGTGCAG”, the binding signal is 3160 fluorescence intensity (a.u.).

As for “CGAGTGTACATATTTATACCCATGGGTAGATACTAGTCCTCGGAGTCACCTAGTGCAG”, the binding signal is 3540 fluorescence intensity (a.u.).

Take “TTATTACTTGGTCATTCGACTCCTTCGTCTTCCTGCGCCCCGGAGTCACCTAGTGCAG”: the binding signal was 25800 fluorescence intensity (a.u.).

Take “CCAATTGCTCCCTAAGCTAGGAATATATCCTACGAAGTAGCGGAGTCACCTAGTGCAG”: the binding signal is 5420 fluorescence intensity (a.u.).
